Reference: article PMC8383118

Assays:
[1] = target: T1, paratox (Prx) from S. pyogenes MGAS315 (Streptococcus pyogenes MGAS315 (prophage)) (UniProt Q4VUT1); assay: pull-down; Prx (with a His-tag) on Ni-NTA resin as bait, purified ComR ortholog (no His-tag) added; 20 mM Tris-HCl pH 7.5, 100 mM NaCl, 1 mM β-ME, 4 °C; SDS-PAGE; both purified
T1 sequence: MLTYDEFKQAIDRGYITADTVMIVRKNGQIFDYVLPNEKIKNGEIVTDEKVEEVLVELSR

[2] = target: ComR S. mutans DNA-binding domain (DBD) construct (Streptococcus mutans); assay: crystal structure; DBD:Prx complex isolated by SEC and crystallised (PDB 7N10); also crystals after in situ α-chymotrypsin digestion of the ComR:Prx complex (PDB 7N1N); 4 °C; both purified
[3] = target: ComR S. thermophilus (Streptococcus thermophilus); assay: SEC; proteins incubated on ice 15 min at 1:1.5 molar ratio ComR:Prx (higher ratio of DBD); Superdex 75; 20 mM Tris-HCl pH 7.5, 100 mM NaCl, 1 mM β-ME; fractions on SDS-PAGE; both purified
[4] = target: ComR S. mutans DNA-binding domain (DBD) construct (Streptococcus mutans); assay: as above
[5] = target: ComR S. mutans, full length (Streptococcus mutans); assay: as above
[6] = target: ComR S. mutans TPR domain construct (Streptococcus mutans); assay: as above
[7] = target: Rgg3 S. pyogenes (Streptococcus pyogenes); assay: as above
[8] = target: ComR S. pyogenes MGAS5005 (Streptococcus pyogenes MGAS5005); assay: as above
[9] = target: ComR S. suis (Streptococcus suis); assay: as above
[10] = target: ComR S. mutans, full length (Streptococcus mutans); assay: SEC-SAXS; ComR, ComR:Prx and Prx at 9 mg/ml; 20 mM Tris-HCl pH 7.5, 100 mM NaCl, 1 mM β-ME; both purified
[11] = target: ComR S. mutans, full length (Streptococcus mutans); assay: other fluorescence titration; competition: 0.2 μM dansyl-XIP, 0.5 μM ComR and increasing unlabeled XIP or Prx, 1 h, room temperature; 20 mM HEPES pH 7.5, 100 mM NaCl, 1 mM β-ME; dansyl emission intensity; both purified

For “ComR S. pyogenes MGAS5005 (Streptococcus pyogenes MGAS5005) (receptor)”, the binding [1] was “binds”.

“ComR S. thermophilus (Streptococcus thermophilus) (receptor)” was tested, and the binding [1] was “binds”.

For “ComR S. mutans, full length (Streptococcus mutans) (receptor)”, the binding [1] was “binds”.

With “ComR S. suis (Streptococcus suis) (receptor)” the binding [1] was “binds”.

B1: paratox (Prx) from S. pyogenes MGAS315 (protein, UniProt Q4VUT1 1-60)
chain: MLTYDEFKQAIDRGYITADTVMIVRKNGQIFDYVLPNEKIKNGEIVTDEKVEEVLVELSR
B1 was tested, and the binding [2] was “binds”, the binding [3] was “binds” and the binding [4] was “binds”. The binding [5] was “binds”, the binding [6] was “no binding” and the binding [7] was “no binding”. For the same molecule, the binding [8] was “binds”, the binding [9] was “binds” and the binding [10] was “binds”.

GLDWWSL [unlabeled S. mutans XIP (GLDWWSL)] was tested, and the binding [11] was “binds”.

No constants are given. Whether binding was seen depends on the method and setting. For some assays here: A result given as binding can be weak or reduced; the word gives no strength.
